# Assay results reported in publication PMC3079584.
# Chains of the proteins cited; added tags and fusions are not shown. Lines headed by an entry give the natural chain unless they say otherwise; changes in a name come on top.
# UniProt P36068: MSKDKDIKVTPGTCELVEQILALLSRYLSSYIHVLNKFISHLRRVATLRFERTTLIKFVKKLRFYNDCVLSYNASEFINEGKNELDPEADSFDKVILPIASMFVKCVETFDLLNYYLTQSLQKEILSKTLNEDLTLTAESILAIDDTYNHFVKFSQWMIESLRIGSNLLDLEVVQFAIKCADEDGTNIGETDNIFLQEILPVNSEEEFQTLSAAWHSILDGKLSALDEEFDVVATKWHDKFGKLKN
# These are yes or no findings as the source states them, for the method shown. Binding seen in cells or lysates may run through a third protein. Binding calls can cover weak binding; strength is not graded here. Tags and fused reporters may be left off the sequences shown.
# B1: HA-tagged She3p (protein, UniProt P38272 1-425)
# chain: MSDQDNTQTSSSKLAPHHNIFMANLESSPTKDRNTSSQNASSSRVIESLHDQIDMLTKTNLQLTTQSQNLLSKLELAQSKESKLLENLNLLKNENENLNSIFERKNKKLKELEKDYSELSNRYNEQKEKMDQLSKLAKNSSAIEQSCSEKLQNMEVNYNSLLESQNLYRDHYSDEISKLNEKIGLLELELSNQNLNYGSDTSSNSDIELNLNKFNDSVKDLKSLETEKDSKLSKIITHSLDELNLQSWLNLYQTNENLISTFAEKMDLKDVLKRNDEKISNKGAVVQTLKKNVQTQVESNNADALSSNNAQDMLPIKMVKLRKTPNTNDSSSNGNSSNNKRRSFYTASPLLSSGSIPKSASPVLPGVKRTASVRKPSSSSSKTNVTHNNDPSTSPTISVPPGVTRTVSSTHKKKGNSMVVHGAQS
# Biological target: She2p-Myc (ΔhE) (Saccharomyces cerevisiae) (UniProt P36068)
# Assay: co-IP; anti-Myc antibody (9E11) on magnetic Protein G beads precipitates She2p-Myc from yeast (she2Δ background); Western blot against HA-tagged She3p; two independent blots quantified
binder,measurement,value
B1,binding,binds weakly
